The values that follow come from patent US20090226500A1, “SUTURES AND ANTI-SCARRING AGENTS” (Angiotech Pharmaceuticals, Inc, priority 2006, published 2009).

Structures are written as SMILES.

The test system of test [1] is MCP-1 production by THP-1 cells. Put plainly: MCP-1 production by macrophages. In kind it is cell-based. Particulars: Homo sapiens, THP-1, 24 h, read-out: IC50 MCP-1 production. The method, then:
The human macrophage cell line, THP-1 was plated in a 12 well plate such that each well contains 1×10^6 cells in 2 ml of media containing 10% FCS. Opsonized zymosan was prepared by resuspending 20 mg of zymosan A in 2 ml of ddH2O and homogenizing until a uniform suspension was obtained. Homogenized zymosan was pelleted at 250 g and resuspended in 4 ml of human serum for a final concentration of 5 mg/ml and incubated in a 37° C. water bath for 20 minutes to enable opsonization. Geldanamycin was prepared in DMSO at a concentration of 10^−2 M and serially diluted 10-fold to give a range of stock concentrations (10^−8 M to 10^−2 M).
THP-1 cells were stimulated to produce MCP-1 by the addition of 1 mg/ml opsonized zymosan. […] was added to THP-1 cells by directly adding DMSO stock solutions, prepared earlier, at a 1/1000 dilution, to each well. Each drug concentration was tested in triplicate wells. Plates were incubated at 37° C. for 24 hours.
After a 24-hour stimulation, supernatants were collected to quantify MCP-1 production. MCP-1 concentrations in the supernatants were determined by ELISA using recombinant human MCP-1 to obtain a standard curve. […] The dilution of Capture Antibody used was lot-specific and was determined empirically. […] Mean absorbance was determined from triplicate data readings and the mean background was subtracted. […]

Another test relates to human fibroblasts. Put plainly: Cell proliferation of fibroblasts. In kind it is cell-based. The conditions noted are these: Fibroblast, 72 hours, CYQUANT. The method, then: Fibroblasts at 70-90% confluency are trypsinized, replated at 600 cells/well in media in 96-well plates and allowed to attachment overnight. […] Each drug concentration is tested in triplicate wells. Plates containing fibroblasts and drug substance are incubated at 37° C. for 72 hours.
To terminate the assay, the media is removed by gentle aspiration. A 1/400 dilution of CYQUANT 400×GR™ dye indicator (Molecular Probes; Eugene, Oreg.) is added to 1× Cell Lysis buffer, and 200 μL of the mixture is added to the wells of the plate. Plates are incubated at room temperature, protected from light for 3-5 minutes.

Turning to `CC[C@H](CO)Nc1nc(NCc2ccccc2)c2ncn(C(C)C)c2n1` [CYC 202], the IC50 in test [1] was determined as 0.306 µM.
Compound `CNCCCC12CCC(c3ccccc31)c1ccccc12` [Maprotiline] returned an IC50 with human fibroblasts of 1.2 to 10 µM.
`Clc1ccc(COC(Cn2ccnc2)c2ccc(Cl)cc2Cl)c(Cl)c1` (stereo not shown) [Miconazole]: in the test on human fibroblasts, the half-maximal inhibitory concentration (IC50) fell in the range of 1.2 to 10 µM.
On the same count and under the same terms, with `CC/C(=C(\c1ccccc1)c1ccc(OCCN(C)C)cc1)c1ccccc1` [Tamoxifen] the figure was 1.2 to 10 µM.
